# Patent publication EP2345639A1, “Cyclic hydroxylamine derivatives, their preparation and use as antioxidants” (ABIOGEN PHARMA S.p.A., priority 2009, dated 2011)
# Tested on: doxorubicin-induced cerebral oxidative stress in mice
# Assay: In vivo assay of cerebral oxidative stress induced in mice by doxorubicin (model and oxidized animals)
# Procedure: The assay was carried out on compounds (1)-(5) and (7)-(11) and on edaravone (E) as comparative compound.
# 10 mice were used for each treatment group. For each compound 50 mg/kg were administered intraperitoneally (IP) for three consecutive days (day 0, 1 and 2); half the animals (5) also received IP 16.7 mg/kg of doxorubicin immediately after the first treatment (day 0). On the day after the last administration (day 3) the animals were killed by neck dislocation and the brains were removed, weighed and frozen in liquid nitrogen.
# For the analyses of oxidative stress, 100 mg/ml of brain homogenate was prepared in HEB^(*) buffer (pH 7.4 EDTA/HEPES^(**)) containing a mixture of enzyme inhibitors (Leupeptin, Pepstatin, Aprotinin, BHA).
# The evaluation parameters were: • BrW/BWi: ratio between final brain weight and initial body weight (day 0); • Prot. Hmg: total proteins in the homogenate (BCA method, i.e. bicinchoninic acid); • Prot. Ox: oxidized proteins in the Hmg by means of a colorimetric method using dinitrophenylhydrazone (DNPH); • GSH: reduced glutathione in the supernatant (sn) of the Hmg, obtained after precipitation with metaphosphoric acid (MPA), by means of a colorimetric method using dithiodinitrobenzene (DTNB); • CAT: catalase in the Hmg by a colorimetric method using potassium dichromate; • SOD: superoxide dismutase by a colorimetric method using SOD Reagent (xanthine, EDTA, nitroblue tetrazole, Na2CO3, BSA, i.e. bovine serum albumin); • GST: glutathione S-transferase in the supernatant by a colorimetric method using chlorodinitrobenzene (CDNB) and GSH; and • GPx: glutathione peroxidase in the supernatant after addition of GSH and t-BuOOH, heating and precipitation with MPA; followed by GSH method with DTNB. The assay was performed on the compounds (1)-(5) and (7)-(11) and on edaravone (E), as comparative compound.
# The mean effect (n=5 experiments) of doxorubicin (D), i.e. "oxidized" animal, relative to the vehicle (V), the vehicle representing the healthy animal.
# All the parameters, with the exclusion of Brain/BWi and Prot. Hmg, were normalized for total Hmg proteins. The D value standard deviations and the % incidence relative to V are given in italics.
# The effect of the tested compounds on the "oxidized" animals was given as % inhibition relative to the percentage change due to doxorubicin alone. The effect of the compounds on the oxidized animals can be expressed both as a function of the values of the vehicle (healthy, vehicle only) and as a function of the value of its own (healthy, compound only): • Vehicle: percentage [(Compound+D)/V]x100/[(V+D)/V]x100 • Its own: percentage [(Compound+D)/Compound]x100/[(V+D)/V]x100
# Again in this case, the mean % effect relative to doxorubicin alone could be given for all the parameters simultaneously, as an approximate index of effectiveness on the cerebral oxidative state of the animal.
# [1] = difference doxorubicin minus vehicle
# [2] = doxorubicin alone, normalized for total Hmg proteins
structure (smiles),measurement,setting,value
"COc1cccc2c1C(=O)c1c(O)c3c(c(O)c1C2=O)C[C@@](O)(C(=O)CO)C[C@@H]3O[C@H]1C[C@H](N)[C@H](O)[C@H](C)O1 [doxorubicin, reference compound]",Diff.D-V Brain/BWi,[1],-1.3600 g/kg
same,Diff.D-V CAT,[1],-0.3027 U/mg
same,Diff.D-V GPX,[1],-0.5843 U/mg
same,Diff.D-V GST,[1],-1.9000 µg/mg
same,Diff.D-V Prot. Hmg,[1],0.7397 mg/mL
same,Diff.D-V Prot. Ox,[1],0.4347 µmol H2O2/Mg
same,Diff.D-V SOD,[1],-5.3400 mU/mg
same,Brain/BWi,"doxorubicin 16.7 mg/kg IP alone, mean of n=5 experiments",18.2867 g/kg
same,CAT,[2],1.9460 U/mg
same,GPX,[2],5.0010 U/mg
same,GST,[2],18.5067 µg/mg
same,Prot. Ox,[2],2.7720 µmol H2O2/Mg
same,SOD,[2],31.2667 mU/mg
